## Primary screen of a compound library

Protein sequences, listed by entry. Tags and fused reporters are not part of them.
UniProt P9WFT3, whole entry: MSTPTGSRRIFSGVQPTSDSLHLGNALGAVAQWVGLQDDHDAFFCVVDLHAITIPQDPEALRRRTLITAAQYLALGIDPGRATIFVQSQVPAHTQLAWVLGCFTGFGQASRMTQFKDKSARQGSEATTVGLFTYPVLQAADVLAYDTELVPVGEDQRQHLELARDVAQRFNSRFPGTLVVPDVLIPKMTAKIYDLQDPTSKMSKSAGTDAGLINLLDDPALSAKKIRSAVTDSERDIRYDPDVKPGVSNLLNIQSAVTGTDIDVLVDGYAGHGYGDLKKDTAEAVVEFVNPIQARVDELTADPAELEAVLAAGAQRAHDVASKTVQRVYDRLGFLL
UniProt I6X8D2, whole entry: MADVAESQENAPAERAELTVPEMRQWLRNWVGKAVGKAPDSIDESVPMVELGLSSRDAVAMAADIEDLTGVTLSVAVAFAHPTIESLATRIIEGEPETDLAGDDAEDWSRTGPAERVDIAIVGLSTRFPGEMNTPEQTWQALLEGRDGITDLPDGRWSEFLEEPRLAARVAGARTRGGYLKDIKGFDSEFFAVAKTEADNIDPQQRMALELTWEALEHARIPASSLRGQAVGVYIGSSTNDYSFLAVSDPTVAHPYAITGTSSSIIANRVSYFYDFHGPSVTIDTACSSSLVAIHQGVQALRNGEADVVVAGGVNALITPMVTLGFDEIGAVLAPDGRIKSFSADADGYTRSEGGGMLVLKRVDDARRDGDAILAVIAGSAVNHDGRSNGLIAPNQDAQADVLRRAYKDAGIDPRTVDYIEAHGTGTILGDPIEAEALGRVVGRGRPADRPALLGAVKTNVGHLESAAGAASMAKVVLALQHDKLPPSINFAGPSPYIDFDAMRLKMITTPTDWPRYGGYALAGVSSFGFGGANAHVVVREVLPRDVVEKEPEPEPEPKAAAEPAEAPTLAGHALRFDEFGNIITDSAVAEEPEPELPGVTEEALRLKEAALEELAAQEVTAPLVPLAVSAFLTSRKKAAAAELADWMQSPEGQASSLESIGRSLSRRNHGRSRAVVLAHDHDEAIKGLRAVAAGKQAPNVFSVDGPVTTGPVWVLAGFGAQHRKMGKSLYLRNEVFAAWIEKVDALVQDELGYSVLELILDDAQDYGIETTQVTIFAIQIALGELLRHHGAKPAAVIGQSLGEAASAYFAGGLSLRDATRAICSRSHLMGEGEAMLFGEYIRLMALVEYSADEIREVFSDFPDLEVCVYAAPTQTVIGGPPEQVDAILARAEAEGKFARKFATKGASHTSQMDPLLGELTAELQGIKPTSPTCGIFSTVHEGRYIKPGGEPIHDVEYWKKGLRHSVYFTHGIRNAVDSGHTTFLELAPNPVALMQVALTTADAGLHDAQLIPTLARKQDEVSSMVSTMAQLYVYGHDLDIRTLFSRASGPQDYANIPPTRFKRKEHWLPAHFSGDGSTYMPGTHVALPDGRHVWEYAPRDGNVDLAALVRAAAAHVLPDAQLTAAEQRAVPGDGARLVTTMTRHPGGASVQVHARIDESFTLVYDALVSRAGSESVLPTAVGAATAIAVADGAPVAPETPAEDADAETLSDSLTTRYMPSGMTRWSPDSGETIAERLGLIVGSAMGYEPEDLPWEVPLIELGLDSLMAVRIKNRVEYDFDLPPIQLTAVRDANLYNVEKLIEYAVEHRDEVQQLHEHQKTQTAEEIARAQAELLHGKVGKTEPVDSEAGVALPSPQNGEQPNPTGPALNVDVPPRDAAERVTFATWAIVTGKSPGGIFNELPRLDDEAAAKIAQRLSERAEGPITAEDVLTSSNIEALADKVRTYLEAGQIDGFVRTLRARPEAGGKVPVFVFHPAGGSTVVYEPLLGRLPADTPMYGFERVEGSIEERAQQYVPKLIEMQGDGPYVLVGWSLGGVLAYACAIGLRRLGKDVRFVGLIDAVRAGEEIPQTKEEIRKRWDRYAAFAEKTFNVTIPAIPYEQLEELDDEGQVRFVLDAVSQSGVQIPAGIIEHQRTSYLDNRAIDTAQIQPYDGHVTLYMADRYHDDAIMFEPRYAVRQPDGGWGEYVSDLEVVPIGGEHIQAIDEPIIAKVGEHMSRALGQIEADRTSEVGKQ

Data taken from ChEMBL document CHEMBL3988442, “University of Dundee, Small-Polar-MMV Screening Library” (2021).

MtTrpRS: 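Enzyme assay of tryptophanyl-tRNA synthetase; the read-out is not stated. Target: Tryptophan-tRNA ligase, Mycobacterium tuberculosis (UniProt P9WFT3). Compounds at 10 µM. Direction is not recorded; retested compounds ran higher, which suggests that high means inhibition. About 65,000 compounds were tested under these conditions; 0.098% (about 64) showed 50% or more at least once.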
Pks13 thioesterase: 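Polyketide synthase Pks13, Mycobacterium tuberculosis (UniProt I6X8D2). Enzyme assay of the thioesterase domain of polyketide synthase 13; the read-out is not stated. Tested at 30 µM. Higher reads as stronger inhibition (inferred from which compounds were picked for retests). Of about 67,000 compounds tested this way, about 300 (0.46%) reached 50% or more in at least one test.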

Results are given as percent effect.
The record does not define 0% and 100%; most values in the screen are far below 50% and negative numbers occur (in some assays of this library far below -100).
Compounds were drawn at random from those tested, without regard to their results.

{"compound": "CCc1nn(-c2cc(Oc3cccc(C)c3)nc(C)n2)c(N)c1C#N", "MtTrpRS": 2.692, "Pks13 thioesterase": -7.067}
{"compound": "COc1ccccc1OC1(C(=O)O)CCN(c2ncnc(C)c2C)CC1", "MtTrpRS": -3.311, "Pks13 thioesterase": -3.333}
{"compound": "NC(c1ccc(F)cc1)c1cccs1", "stereo": "configuration not stated", "MtTrpRS": -0.9288, "Pks13 thioesterase": 21.48}
{"compound": "CCCN1CCN(C(=O)c2cc[nH]n2)[C@H]2CS(=O)(=O)C[C@H]21", "MtTrpRS": -1.458, "Pks13 thioesterase": -8.12}
{"compound": "Cc1cc(CN(C)C(=O)c2ccc(F)cc2F)no1", "MtTrpRS": 2.473, "Pks13 thioesterase": 2.696}
{"compound": "CSc1ccc(NCc2csc(CS(C)(=O)=O)n2)cc1F", "MtTrpRS": -2.385, "Pks13 thioesterase": -5.989}
{"compound": "CCCNCc1cn(Cc2ccccc2)nc1-c1cccnc1", "MtTrpRS": -5.062, "Pks13 thioesterase": -4.913}
{"compound": "COc1ccc(CNC2CCc3ncnn3C2)cc1OCCCC#N", "stereo": "configuration not stated", "MtTrpRS": 3.312, "Pks13 thioesterase": 0.1677}
{"compound": "Nc1nc2nc(C3CCCN(C(=O)c4cncs4)C3)ccc2s1", "stereo": "configuration not stated", "Pks13 thioesterase": -8.533}
{"compound": "Cc1nn(C)c(N2CCOCC2)c1CNC1CCN(C2CC2)CC1", "MtTrpRS": 1.605, "Pks13 thioesterase": -5.487}
{"compound": "Cc1noc(C2CCCN(Cn3cc(Cl)cn3)C2)n1", "stereo": "configuration not stated", "MtTrpRS": -2.041, "Pks13 thioesterase": -23.38}
{"compound": "Cc1ccc(S(=O)(=O)NCC2CNCCOC2)cc1Cl", "stereo": "configuration not stated", "MtTrpRS": -2.457, "Pks13 thioesterase": -20.17}
{"compound": "CNC(=O)C1Cn2ccnc2C2(CCN(Cc3ccncc3)CC2)O1", "stereo": "configuration not stated", "MtTrpRS": 0}
{"compound": "Cc1ccc2c(c1)C1(CCNCC1)CC2OCC1CC1", "stereo": "configuration not stated", "MtTrpRS": -3.108}
{"compound": "CN(C)c1ccc(C2CC(=O)Nc3c2cnn3Cc2ccco2)cc1", "stereo": "configuration not stated", "MtTrpRS": -2.177, "Pks13 thioesterase": -14.25}
{"compound": "Cc1ccc(F)c(NS(=O)(=O)c2cc(C(=O)O)oc2C)c1", "MtTrpRS": 3.213, "Pks13 thioesterase": -3.425}
{"compound": "Cc1n[nH]c(C)c1CNCC(O)c1ccc(F)c(F)c1", "stereo": "configuration not stated", "MtTrpRS": -11.05, "Pks13 thioesterase": -7.262}
{"compound": "CC(=O)c1ccc(OCC(C)O)cc1O", "stereo": "configuration not stated", "Pks13 thioesterase": 4.115}
{"compound": "CCCc1nccn1-c1ccc(C(C)O)cc1", "stereo": "configuration not stated", "MtTrpRS": 3.096, "Pks13 thioesterase": -46.95}
{"compound": "Cc1cn(Cc2ccc(F)c(F)c2)nc1N", "Pks13 thioesterase": -7.159}
{"compound": "CC(C)(C)n1ncc2c1NC(=O)CC2c1ccc(C#N)cc1", "stereo": "configuration not stated", "MtTrpRS": -3.832, "Pks13 thioesterase": 19.02}
{"compound": "Cc1ccoc1-c1nnc(CNCCn2cccn2)o1", "MtTrpRS": -1.18, "Pks13 thioesterase": -94.17}
{"compound": "O=C(CC1CCC1)N1CCCC(CO)(CC2CC2)C1", "stereo": "configuration not stated", "MtTrpRS": 0.1097, "Pks13 thioesterase": -5.775}
{"compound": "COCC(=O)N1CCCn2c(CN3CCCCC3)nnc2C1", "MtTrpRS": -3.701, "Pks13 thioesterase": 4.329}
{"compound": "CC(C)N(C)Cc1nnc2n1CCN(Cc1ccncc1)CC2", "MtTrpRS": -1.784, "Pks13 thioesterase": 0.8348}
{"compound": "CC(NC1(CNC(=O)OC(C)(C)C)CCOCC1)c1ccccc1", "stereo": "configuration not stated", "MtTrpRS": -1.002, "Pks13 thioesterase": -21.27}
{"compound": "COc1cccc(CC(=O)NCC(Cc2ccc(F)cc2)C(N)=O)c1", "stereo": "configuration not stated", "MtTrpRS": 4.402, "Pks13 thioesterase": -4.184}
{"compound": "O=C(NCc1ccccc1)N1CCC2(CC(=O)N(c3ccsc3)C2)C1", "stereo": "configuration not stated", "MtTrpRS": -4.128, "Pks13 thioesterase": -2.41}
{"compound": "CC(C)c1nccn1-c1cncc(C2CCCN(C3CCCCC3)C2)n1", "stereo": "configuration not stated", "Pks13 thioesterase": -9.783}
{"compound": "COCCc1noc(CN2CCCC2c2noc(C(C)C)n2)n1", "stereo": "configuration not stated", "MtTrpRS": -0.7101, "Pks13 thioesterase": 4.298}
{"compound": "COC(C)(C)Cn1ccnc1-c1cccc(C(C)N(C)C)c1", "stereo": "configuration not stated", "MtTrpRS": 0.5435, "Pks13 thioesterase": -33.03}
{"compound": "CCCC(=O)N1CCCC(Cn2cc(-c3ccc(F)cc3)nn2)C1", "stereo": "configuration not stated", "MtTrpRS": 5.047, "Pks13 thioesterase": -14.86}
{"compound": "CN1C(=O)CC(c2cnn(C)c2)C12CCN(C(=O)c1ccncc1)CC2", "stereo": "configuration not stated", "MtTrpRS": 0.5348, "Pks13 thioesterase": -7.18}
{"compound": "Cc1cc(C)c2cc(CNCC3CCCO3)c3nn(C)c(=O)n3c2c1", "stereo": "configuration not stated", "MtTrpRS": 2.926, "Pks13 thioesterase": -16.52}
{"compound": "CNc1nc(C)c(C(=O)N2C[C@@H](C(=O)O)[C@H](C3CC3)C2)s1", "MtTrpRS": -0.9266, "Pks13 thioesterase": 5.213}
{"compound": "Cc1ccoc1C(=O)N1CCCc2c(c(=O)n(C)n2C)C1", "MtTrpRS": -1.514, "Pks13 thioesterase": -3.408}
{"compound": "CCOC(=O)c1cc2c(=O)[nH]c(=O)n(CCc3ccccc3)c2nc1C", "MtTrpRS": 3.363, "Pks13 thioesterase": -6.137}
{"compound": "CC(=O)NCCNC(=O)NCc1ccc(-n2ccc(C(F)(F)F)n2)cc1", "MtTrpRS": -3.664, "Pks13 thioesterase": 6.208}
{"compound": "CCn1nc(C)c2nnn(CC(=O)Nc3cccc(C)c3)c(=O)c21", "MtTrpRS": 1.166, "Pks13 thioesterase": -13.75}

For reference, 2 entries once more:

* CNC(=O)C1Cn2ccnc2C2(CCN(Cc3ccncc3)CC2)O1 (configuration not stated) : MtTrpRS: 0%
* Cc1ccc(S(=O)(=O)NCC2CNCCOC2)cc1Cl (configuration not stated) : MtTrpRS: -2.457%; Pks13 thioesterase: -20.17%